Results from PubChem BioAssay AID1487 (National Center for Advancing Translational Sciences (NCATS), 2009).
The other results are listed elsewhere or left out. Shown are side measurements of this screen, not its main read-out; they come without a call. The list favours compounds with an active or inconclusive main result. Words in brackets tell the shape of the fitted curve; partial curves, single points and poor fits give uncertain potencies.

Assay: qHTS Assay for Modulators of Lamin A Splicing
Details: HeLa LMNA splicing GFP/RFP minigene ratio, 48 h
Procedure, shortened: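 S3 HeLa stable clones carrying a lamin A-EGFP splicing minigene plus DsRed2 were seeded at 600 cells/well in Opti-MEM with 2% FBS, pin-dosed and incubated 48 h at 37°C. Acumen cytometry (488 nm) gave the GFP/RFP total-intensity ratio.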

[1] = measured here: RFP viability control channel
[2] = measured here: GFP splicing reporter channel

Compound | AC50 [1] | AC50 [2]
C=CCc1ccc(OCC(O)CN2CCC(Cc3ccccc3)CC2)c(OC)c1 (centres undefined) | 11.2 µM [rising, partial curve, poor fit] | –
O=C(Nc1ccccc1)c1ccc(F)c(S(=O)(=O)N2CCOCC2)c1 | 14.1 µM [rising, partial curve, poor fit] | –
O=C1NC(=O)C(c2ccccc2[N+](=O)[O-])=C1Nc1ccc(O)c(Cl)c1 | 0.355 µM [rising, full curve] | 5.62 µM [falling, partial curve, poor fit]
CCn1c(SCC(=O)Nc2cccc(F)c2)nc2c(c1=O)SC(C)C2 (centres undefined) | 14.1 µM [rising, partial curve] | –
O=C(CSc1nc2ncccc2[nH]1)c1cccc([N+](=O)[O-])c1 | 2.82 µM [rising, partial curve, poor fit] | –
COc1ccc(OC)c(-c2cc(C(=O)NCCCn3ccnc3)no2)c1 | 2.24 µM [rising, partial curve, poor fit] | –
O=C(c1cc(-c2ccncc2)nc2ccc(Br)cc12)N1CCN(Cc2ccc3c(c2)OCO3)CC1 | – | 35.5 µM [falling, single point]
Cn1c(=O)n(C)c2cc(NS(=O)(=O)c3ccc4c(c3)CCCC4)ccc21 | 3.16 µM [rising, single point] | –
COc1ccccc1NC(=O)c1nnn(Cc2ccccc2)c1NC(=O)C(F)(F)F | – | 11.2 µM [rising, single point]
COC(=O)N/N=C/c1cccc(OCCSc2ccc(Cl)cc2)c1 | 25.1 µM [rising, partial curve] | 15.8 µM [rising, partial curve]
O=S(=O)(NCCc1csc(-c2ccc(F)cc2)n1)c1ccc(F)cc1F | 11.2 µM [rising, partial curve, poor fit] | –
Cc1ccnc(NC(=S)NC(=O)/C=C/c2ccco2)c1 | 10 µM [rising, partial curve, poor fit] | –
COC(=O)c1c(NC(=O)COC(=O)Cn2cnc3ccccc32)sc(C)c1C | 35.5 µM [rising, single point] | 22.4 µM [rising, single point]
COC(=O)/C(=N/Nc1ccccc1)N1CCCc2ccccc21 | 10 µM [rising, single point] | 11.2 µM [rising, single point]
COC(=O)c1cc(NC(=O)Nc2cccc(Cl)c2)ccc1Cl | 35.5 µM [falling, single point] | 15.8 µM [falling, single point]
O=C(CSc1ncnc2nc[nH]c12)c1ccccc1 | 25.1 µM [falling, single point] | –
CS(=O)(=O)N(Cc1ccc(Cl)cc1)c1ccc(C(=O)NCCSCc2ccco2)cc1 | 14.1 µM [rising, single point] | 15.8 µM [rising, single point]
CC1C=CCC2C(=O)N(c3ccc(Cl)cc3O)C(=O)C12 (centres undefined) | 0.158 µM [falling, full curve, poor fit] | 0.0501 µM [falling, partial curve, poor fit]
CC(C)CN(C(=O)c1ccco1)c1nc2ccccc2s1 | – | 14.1 µM [rising, single point]
O=C(COC(=O)C12CC3CC(CC(O)(C3)C1)C2)Nc1ccccc1OC(F)F | 17.8 µM [rising, single point] | –
COc1ccc(CCNc2nnc(Sc3nnnn3-c3ccccc3)s2)cc1OC | 5.01 µM [rising, single point] | –
COCCN1C=C2C(=O)C(C)(OC(=O)C3CCCC3)C(=O)C(c3ccccc3)=C2C=C1CCCC(=O)OC (centres undefined) | 0.02 µM [falling, full curve, poor fit] | 0.0224 µM [falling, full curve]
CCn1ncc(C2=NOC(C(=O)Nc3cccc(C(C)=O)c3)C2)c1C (centres undefined) | 10 µM [rising, partial curve] | 4.47 µM [rising, partial curve]
Cc1ccc(NC(=O)C(C)N2C(=O)c3ccccc3C2=O)cc1 (centres undefined) | 3.55 µM [rising, partial curve] | –
N#C/C(=C\c1ccc(O)c(O)c1)C(=O)Nc1ccccc1 | 7.94 µM [falling, partial curve] | 10 µM [falling, partial curve]
O=[N+]([O-])c1ccc(Nc2nc(NCCO)nc(N3CCCC3)n2)cc1 | 11.2 µM [rising, partial curve] | –
COc1ccc2[nH]cc(CCNC(=S)NC3CCCC3)c2c1 | 5.01 µM [rising, partial curve] | 0.708 µM [rising, partial curve]
CCOC(=O)c1cc2cc3ccccc3cc2[nH]1 | 0.0562 µM [falling, full curve] | –

Compound | AC50 [1] | AC50 [2]
Cc1cccc(Cc2c(C)nc3c(C(=O)NCc4ccco4)cnn3c2C)c1 | 11.2 µM [rising, partial curve] | 11.2 µM [rising, partial curve]
NC(=O)CSc1nc(C2CC2)nc2sc3c(c12)CCCC3 | 0.00316 µM [falling, full curve, poor fit] | –
CC1(c2ccc([N+](=O)[O-])c(CS(=O)(=O)c3ccccc3)c2)OCCO1 | – | 1.26 µM [rising, partial curve, poor fit]
COc1ccc(CC(=O)Nc2ccc(-c3nc4ccccc4s3)cc2Cl)cc1 | 12.6 µM [falling, partial curve, poor fit] | –
O=c1c2ccccc2nc(COc2ccccc2)n1/N=C/c1c[nH]c2ccccc12 | 15.8 µM [rising, single point] | –
COC(=O)[C@@]1(Cc2ccc(F)cc2)[C@H]2c3cc(C(=O)N(C)C)n(Cc4ccc(OC)c(OC)c4)c3C[C@H]2CN1C(=O)c1ccccc1 | 14.1 µM [rising, single point] | 10 µM [rising, single point]
O=C(Oc1ccc(Br)cc1C(=S)N1CCCC1)c1ccccc1F | – | 5.01 µM [rising, full curve, poor fit]
COc1cc(C(=O)Sc2ccc(C)cc2)cc(OC)c1OC | 35.5 µM [falling, single point] | 28.2 µM [falling, single point]
CCCN(CCC)c1nn2c(=O)c(C(=O)NCc3cccc(OC)c3)cnc2s1 | 0.0708 µM [falling, full curve, poor fit] | –
CCOC(=O)c1c(C)[nH]c(=S)c(C#N)c1-c1ccc(Cl)cc1 | 35.5 µM [rising, single point] | –
Cc1ccc(NC(=O)C2(NC(=O)c3ccccn3)CCCCC2)cc1Br | 10 µM [rising, partial curve, poor fit] | –
COc1ccc(CNC(=O)C2CCN(C(=O)[C@@H](CC(C)C)NC(=O)OC(C)(C)C)CC2)cc1 | 3.98 µM [falling, single point] | –
CCOc1cccc(-c2nnc3sc(C4CCCCC4)nn23)c1 | 17.8 µM [rising, single point] | 10 µM [rising, partial curve, poor fit]
Cc1ccc(-c2noc(CCC(=O)Nc3ccccc3C)n2)cc1 | 8.91 µM [rising, partial curve] | 3.98 µM [rising, full curve, poor fit]
CCOC(=O)c1sc(Nc2nc3c(OC)cccc3s2)cc1C | – | 25.1 µM [falling, single point]
COc1ccc(CN(CCC(c2ccc(F)cc2)C2CCOC(C)(C)C2)C(=O)c2ccco2)cc1 (centres undefined) | 12.6 µM [falling, partial curve] | 12.6 µM [falling, partial curve]
Cc1cc2nc(C3CCN(Cc4nnnn4Cc4ccccc4)CC3)[nH]c2cc1C | – | 15.8 µM [falling, single point]
Cc1cc(N2CCN(C(=O)c3ccco3)CC2)n2ncc(-c3ccccc3)c2n1 | 15.8 µM [rising, partial curve] | –
Cc1sc(-c2cc3ccccc3oc2=O)nc1-c1ccc(Cl)cc1 | 35.5 µM [rising, single point] | –
C=CCN(CC=C)CCOc1ccccc1F | – | 0.00355 µM [falling, full curve, poor fit]
O=C(CN(Cc1ccccc1)C(=O)c1ccc2c(c1)OCCO2)NCc1ccc2c(c1)OCO2 | – | 8.91 µM [rising, single point]
COC/C=C/C1=CC2=CC(=O)C(C)(OC(=O)c3cnc4ccccc4n3)C(=O)C2=CN1C(CO)CO (centres undefined) | 0.00708 µM [falling, full curve, poor fit] | –
O=C(Nc1ccc(S(=O)(=O)Nc2ncccn2)cc1)C1=NN(c2ccccc2)C(=O)CC1 | 0.112 µM [rising, full curve, poor fit] | 0.0794 µM [rising, partial curve, poor fit]
COc1ccc(Cc2noc(-c3ccc(OC)c(OC)c3)n2)cc1OC | 20 µM [rising, single point] | –
CC(=O)Nc1ccc(S(=O)(=O)N2CCSC2c2ccc(Cl)cc2)cc1 (centres undefined) | 11.2 µM [rising, partial curve] | –
Cc1ccc(C)c(CSc2c(C(C)C)cnc3c2c(=O)n(C)c(=O)n3C)c1 | 2.82 µM [rising, full curve] | 1.78 µM [rising, partial curve]
Cn1c(C(=O)N2CCC(C(=O)N3CCN(Cc4ccc5c(c4)OCO5)CC3)CC2)cc2sccc21 | 12.6 µM [rising, partial curve] | –

Fetched one by one from above, 3 records:
Compound | AC50 [1] | AC50 [2]
O=C(Oc1ccc(Br)cc1C(=S)N1CCCC1)c1ccccc1F | – | 5.01 µM [rising, full curve, poor fit]
C=CCN(CC=C)CCOc1ccccc1F | – | 0.00355 µM [falling, full curve, poor fit]
COc1ccc(CN(CCC(c2ccc(F)cc2)C2CCOC(C)(C)C2)C(=O)c2ccco2)cc1 (centres undefined) | 12.6 µM [falling, partial curve] | 12.6 µM [falling, partial curve]
